{
  "source": "the supplement of paper PMC8728848",
  "binders": {"B1": {"name": "PP2A1 (Arabidopsis thaliana) (protein)", "chain": "MFRNQDSKYLIPVQKEAPPVTTLPMKASTVKSPHNCEAILRDADPPISLSSVNLSEQLRSGVFLKPKKQIKYWVDERNSNCFMLFAKNLSITWSDDVNYWTWFTEKESPNENVEAVGLKNVCWLDITGKFDTRNLTPGIVYEVVFKVKLEDPAYGWDTPVNLKLVLPNGKEKPQEKKVSLRELPRYKWVDVRVGEFVPEKSAAGEITFSMYEHAAGVWKKGLSLKGVAIRPKQHHHHHH"}},
  "assay_in_all_cases": "glycan array binding signal (z-score within array); higher = stronger binding",
  "details_in_all_cases": "glycan notation: IUPAC condensed, linker removed",
  "key": {"[1]": {"target": "Gal(b1-4)GlcNAc(b1-2)[Gal(b1-4)GlcNAc(b1-4)]Man(a1-3)[Gal(b1-4)GlcNAc(b1-2)Man(a1-6)]Man(b1-4)GlcNAc(b1-4)GlcNAc", "in_short": "(§1)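 The binding signal is a Z-score computed within each array. Data were drawn from 3228 arrays in the Consortium for Functional Glycomics database, restricted to those with a known protein sequence. Scores were averaged over arrays of the same protein sequence at different concentrations or buffers, and over linkers, and negative values can be taken as non-binding.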"}, "[2]": {"target": "Gal(b1-4)GlcNAc(b1-3)Gal(b1-3)GlcNAc", "in_short": "as §1"}, "[3]": {"target": "Gal(b1-4)GlcNAc(b1-3)Gal(b1-4)Glc", "in_short": "as §1"}, "[4]": {"target": "Gal(b1-4)GlcNAc(b1-3)Gal(b1-4)GlcNAc", "in_short": "as §1"}, "[5]": {"target": "Gal(b1-4)GlcNAc(b1-3)Gal(b1-4)GlcNAc(b1-3)Gal(b1-4)GlcNAc", "in_short": "as §1"}, "[6]": {"target": "Gal(b1-4)GlcNAc(b1-3)Gal(b1-4)[Fuc(a1-3)]GlcNAc(b1-3)Gal(b1-4)[Fuc(a1-3)]GlcNAc", "in_short": "as §1"}, "[7]": {"target": "Gal(b1-4)GlcNAc(b1-3)GalNAc", "in_short": "as §1"}, "[8]": {"target": "Gal(b1-4)GlcNAc(b1-3)[Gal(b1-4)GlcNAc(b1-6)]Gal(b1-4)GlcNAc", "in_short": "as §1"}, "[9]": {"target": "Gal(b1-4)GlcNAc(b1-3)[GlcNAc(b1-6)]Gal(b1-4)GlcNAc", "in_short": "as §1"}, "[10]": {"target": "Gal(b1-4)GlcNAc(b1-6)Gal(b1-4)GlcNAc", "in_short": "as §1"}, "[11]": {"target": "Gal(b1-4)GlcNAc(b1-6)Gal(b1-4)GlcNAc(b1-6)GalNAc", "in_short": "as §1"}, "[12]": {"target": "Gal(b1-4)GlcNAc(b1-6)GalNAc", "in_short": "as §1"}, "[13]": {"target": "Gal(b1-4)GlcNAc(b1-6)[Gal(b1-3)]GalNAc", "in_short": "as §1"}, "[14]": {"target": "Gal3S(b1-3)GalNAc", "in_short": "as §1"}, "[15]": {"target": "Gal3S(b1-3)GlcNAc", "in_short": "as §1"}, "[16]": {"target": "Gal3S(b1-3)[Fuc(a1-4)]GlcNAc", "in_short": "as §1"}, "[17]": {"target": "Gal3S(b1-4)Glc", "in_short": "as §1"}, "[18]": {"target": "Gal3S(b1-4)Glc6S", "in_short": "as §1"}, "[19]": {"target": "Gal3S(b1-4)GlcNAc", "in_short": "as §1"}, "[20]": {"target": "Gal3S(b1-4)GlcNAc6S", "in_short": "as §1"}, "[21]": {"target": "Gal3S(b1-4)[Fuc(a1-3)]Glc", "in_short": "as §1"}, "[22]": {"target": "Gal3S4S(b1-4)GlcNAc", "in_short": "as §1"}, "[23]": {"target": "Gal3S6S(b1-4)GlcNAc", "in_short": "as §1"}, "[24]": {"target": "Gal3S6S(b1-4)GlcNAc6S", "in_short": "as §1"}, "[25]": {"target": "Gal4S(b1-4)GlcNAc", "in_short": "as §1"}, "[26]": {"target": "Gal4S6S(b1-4)GlcNAc", "in_short": "as §1"}, "[27]": {"target": "Gal6S(b1-4)Glc", "in_short": "as §1"}, "[28]": {"target": "Gal6S(b1-4)Glc6S", "in_short": "as §1"}, "[29]": {"target": "Gal6S(b1-4)GlcNAc", "in_short": "as §1"}, "[30]": {"target": "Gal6S(b1-4)GlcNAc6S", "in_short": "as §1"}, "[31]": {"target": "GalNAc(a1-3)Gal", "in_short": "as §1"}, "[32]": {"target": "GalNAc(a1-3)GalNAc", "in_short": "as §1"}, "[33]": {"target": "GalNAc(b1-3)Gal", "in_short": "as §1"}, "[34]": {"target": "GalNAc(b1-3)Gal(a1-4)Gal(b1-4)GlcNAc", "in_short": "as §1"}, "[35]": {"target": "GalNAc(b1-3)Gal(a1-4)Gal(b1-4)GlcNAc(b1-3)Gal(b1-4)Glc", "in_short": "as §1"}, "[36]": {"target": "GalNAc(b1-3)GalNAc", "in_short": "as §1"}, "[37]": {"target": "GalNAc(b1-4)GlcNAc", "in_short": "as §1"}, "[38]": {"target": "GalNAc(b1-4)GlcNAc(b1-2)Man(a1-3)[GalNAc(b1-4)GlcNAc(b1-2)Man(a1-6)]Man(b1-4)GlcNAc(b1-4)GlcNAc", "in_short": "as §1"}},
  "note": "This is one part of the list.",
  "data": [
    {"binder": "B1", "values": [
      {"measurement": "glycan array binding signal (z-score)", "setting": "[1]", "result": 0.104},
      {"measurement": "glycan array binding signal (z-score)", "setting": "[2]", "result": -0.565},
      {"measurement": "glycan array binding signal (z-score)", "setting": "[3]", "result": -0.123},
      {"measurement": "glycan array binding signal (z-score)", "setting": "[4]", "result": 0.087},
      {"measurement": "glycan array binding signal (z-score)", "setting": "[5]", "result": -0.223},
      {"measurement": "glycan array binding signal (z-score)", "setting": "[6]", "result": -0.545},
      {"measurement": "glycan array binding signal (z-score)", "setting": "[7]", "result": -0.19},
      {"measurement": "glycan array binding signal (z-score)", "setting": "[8]", "result": -0.579},
      {"measurement": "glycan array binding signal (z-score)", "setting": "[9]", "result": -0.593},
      {"measurement": "glycan array binding signal (z-score)", "setting": "[10]", "result": -0.067},
      {"measurement": "glycan array binding signal (z-score)", "setting": "[11]", "result": 0.051},
      {"measurement": "glycan array binding signal (z-score)", "setting": "[12]", "result": -0.62},
      {"measurement": "glycan array binding signal (z-score)", "setting": "[13]", "result": 0.252},
      {"measurement": "glycan array binding signal (z-score)", "setting": "[14]", "result": -0.147},
      {"measurement": "glycan array binding signal (z-score)", "setting": "[15]", "result": 0.159},
      {"measurement": "glycan array binding signal (z-score)", "setting": "[16]", "result": 0.013},
      {"measurement": "glycan array binding signal (z-score)", "setting": "[17]", "result": -0.49},
      {"measurement": "glycan array binding signal (z-score)", "setting": "[18]", "result": 0.405},
      {"measurement": "glycan array binding signal (z-score)", "setting": "[19]", "result": -0.121},
      {"measurement": "glycan array binding signal (z-score)", "setting": "[20]", "result": 0.165},
      {"measurement": "glycan array binding signal (z-score)", "setting": "[21]", "result": 0.108},
      {"measurement": "glycan array binding signal (z-score)", "setting": "[22]", "result": 0.581},
      {"measurement": "glycan array binding signal (z-score)", "setting": "[23]", "result": 0.122},
      {"measurement": "glycan array binding signal (z-score)", "setting": "[24]", "result": 0.393},
      {"measurement": "glycan array binding signal (z-score)", "setting": "[25]", "result": 0.949},
      {"measurement": "glycan array binding signal (z-score)", "setting": "[26]", "result": 0.202},
      {"measurement": "glycan array binding signal (z-score)", "setting": "[27]", "result": 0.059},
      {"measurement": "glycan array binding signal (z-score)", "setting": "[28]", "result": 1.26},
      {"measurement": "glycan array binding signal (z-score)", "setting": "[29]", "result": -0.167},
      {"measurement": "glycan array binding signal (z-score)", "setting": "[30]", "result": 1.38},
      {"measurement": "glycan array binding signal (z-score)", "setting": "[31]", "result": -0.615},
      {"measurement": "glycan array binding signal (z-score)", "setting": "[32]", "result": -0.698},
      {"measurement": "glycan array binding signal (z-score)", "setting": "[33]", "result": -0.293},
      {"measurement": "glycan array binding signal (z-score)", "setting": "[34]", "result": 0.158},
      {"measurement": "glycan array binding signal (z-score)", "setting": "[35]", "result": -0.414},
      {"measurement": "glycan array binding signal (z-score)", "setting": "[36]", "result": -0.497},
      {"measurement": "glycan array binding signal (z-score)", "setting": "[37]", "result": -0.629},
      {"measurement": "glycan array binding signal (z-score)", "setting": "[38]", "result": 0.662}
    ]}
  ]
}
